# The source gives many values for each of these; only a part stands here.
# Tested on: PRISM DNA-barcoded human tumour cell lines
# Test: PRISM pooled cell viability assay;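 note: 8 threefold dilutions from 10 µM with 5 days of exposure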
# Type: cell-based
# Parameters: Area under the curve (AUC): scale not given here
# Protocol: Cells were then lysed in TCL mRNA lysis buffer, and then PCR with reverse transcription was performed. Detection of the barcodes and univariate and multivariate analysis was then performed as previously described. Data analysis is described in the Supplementary Methods. Up-to-date code for our analysis is at the github link: https://github.com/cmap/dockerized_mts.
# For every gene with non-silent mutations in at least four cell-lines, we compared the AUC values between cells with and without those mutations using a t-test. This analysis was carried out for: (i) the full dataset; (ii) excluding cell lines with non-silent KRAS mutations; and (iii) excluding cell lines that have either KRAS or NRAS non-silent mutations.
compound,measurement,setting,value
CCn1c(-c2cc(N3CCN(C4CC4)CC3)cnc2[C@H](C)OC)c2c3cc(ccc31)-c1csc(n1)C[C@H](NC(=O)[C@H]1[C@@H]3COC[C@@H]31)C(=O)N1CCC[C@H](N1)C(=O)OCC(C)(C)C2 [RMC-7977],Area under the curve (AUC),8MGBA_CENTRAL_NERVOUS_SYSTEM,0.9042
same,Area under the curve (AUC),22RV1_PROSTATE,0.9273
same,Area under the curve (AUC),93T449_SOFT_TISSUE,0.8906
same,Area under the curve (AUC),94T778_SOFT_TISSUE,0.6572
same,Area under the curve (AUC),95T1000_SOFT_TISSUE,0.5675
same,Area under the curve (AUC),143B_BONE,0.5521
same,Area under the curve (AUC),253J_URINARY_TRACT,0.787
same,Area under the curve (AUC),921_UVEA,0.7581
same,Area under the curve (AUC),1618K_TESTIS,0.7204
same,Area under the curve (AUC),1777NRPMET_TESTIS,0.8773
same,Area under the curve (AUC),8505C_THYROID,0.9978
same,Area under the curve (AUC),9505BIK_PANCREAS,0.2525
same,Area under the curve (AUC),2313287_STOMACH,0.6455
same,Area under the curve (AUC),A3KAW_HAEMATOPOIETIC_AND_LYMPHOID_TISSUE,0.4846
same,PRISM AUC,"A3KAW_HAEMATOPOIETIC_AND_LYMPHOID_TISSUE, KRAS WT",0.512
same,Area under the curve (AUC),A101D_SKIN,0.9331
same,PRISM AUC,"A101D_SKIN, KRAS WT",0.8318
same,Area under the curve (AUC),A172_CENTRAL_NERVOUS_SYSTEM,0.863
same,PRISM AUC,"A172_CENTRAL_NERVOUS_SYSTEM, KRAS WT",0.8873
same,Area under the curve (AUC),A204_SOFT_TISSUE,0.7045
same,Area under the curve (AUC),A253_SALIVARY_GLAND,0.4696
same,PRISM AUC,"A253_SALIVARY_GLAND, KRAS WT",0.2994
same,Area under the curve (AUC),A375_SKIN,0.8561
same,PRISM AUC,"A375_SKIN, KRAS WT",0.8721
same,Area under the curve (AUC),A388_SKIN,0.4368
same,Area under the curve (AUC),A427_LUNG,0.4665
same,Area under the curve (AUC),A498_KIDNEY,0.6699
same,PRISM AUC,"A498_KIDNEY, KRAS WT",0.6684
same,Area under the curve (AUC),A549_LUNG,0.6015
same,Area under the curve (AUC),A673_BONE,0.9239
same,PRISM AUC,"A673_BONE, KRAS WT",1
same,Area under the curve (AUC),A704_KIDNEY,1
same,PRISM AUC,"A704_KIDNEY, KRAS WT",0.906
same,Area under the curve (AUC),A1207_CENTRAL_NERVOUS_SYSTEM,0.9954
same,PRISM AUC,"A1207_CENTRAL_NERVOUS_SYSTEM, KRAS WT",0.9848
same,Area under the curve (AUC),A2058_SKIN,0.7259
same,PRISM AUC,"A2058_SKIN, KRAS WT",0.6601
same,Area under the curve (AUC),A2780_OVARY,0.7059
same,PRISM AUC,"A2780_OVARY, KRAS WT",0.5832
same,Area under the curve (AUC),ABC1_LUNG,0.8026
same,PRISM AUC,"ABC1_LUNG, KRAS WT",0.8614
same,Area under the curve (AUC),ACCMESO1_PLEURA,0.6684
same,PRISM AUC,"ACCMESO1_PLEURA, KRAS WT",0.7692
same,Area under the curve (AUC),ACHN_KIDNEY,0.5903
same,PRISM AUC,"ACHN_KIDNEY, KRAS WT",0.4579
same,Area under the curve (AUC),AGS_STOMACH,0.4566
same,Area under the curve (AUC),ALLSIL_HAEMATOPOIETIC_AND_LYMPHOID_TISSUE,0.8419
same,Area under the curve (AUC),AM38_CENTRAL_NERVOUS_SYSTEM,0.8647
same,PRISM AUC,"AM38_CENTRAL_NERVOUS_SYSTEM, KRAS WT",0.8345
same,Area under the curve (AUC),AMO1_HAEMATOPOIETIC_AND_LYMPHOID_TISSUE,0.813
same,PRISM AUC,"AMO1_HAEMATOPOIETIC_AND_LYMPHOID_TISSUE, KRAS MUT",0.6859
same,Area under the curve (AUC),AN3CA_ENDOMETRIUM,0.5907
same,PRISM AUC,"AN3CA_ENDOMETRIUM, KRAS WT",0.5419
same,Area under the curve (AUC),ANGMCSS_CENTRAL_NERVOUS_SYSTEM,0.8905
same,Area under the curve (AUC),ASPC1_PANCREAS,0.4861
same,Area under the curve (AUC),AU565_BREAST,0.8808
same,PRISM AUC,"AU565_BREAST, KRAS WT",0.8923
same,Area under the curve (AUC),BC3C_URINARY_TRACT,0.7115
same,PRISM AUC,"BC3C_URINARY_TRACT, KRAS WT",0.5008
same,Area under the curve (AUC),BCPAP_THYROID,0.8173
same,PRISM AUC,"BCPAP_THYROID, KRAS WT",0.8406
same,Area under the curve (AUC),BDCM_HAEMATOPOIETIC_AND_LYMPHOID_TISSUE,0.8218
same,Area under the curve (AUC),BECKER_CENTRAL_NERVOUS_SYSTEM,0.6729
same,Area under the curve (AUC),BEN_LUNG,0.8006
same,PRISM AUC,"BEN_LUNG, KRAS WT",0.6084
same,Area under the curve (AUC),BFTC905_URINARY_TRACT,0.5049
same,PRISM AUC,"BFTC905_URINARY_TRACT, KRAS WT",0.3728
same,Area under the curve (AUC),BFTC909_KIDNEY,0.7912
same,PRISM AUC,"BFTC909_KIDNEY, KRAS WT",0.814
same,Area under the curve (AUC),BHT101_THYROID,0.8712
same,PRISM AUC,"BHT101_THYROID, KRAS WT",0.8105
same,Area under the curve (AUC),BHY_UPPER_AERODIGESTIVE_TRACT,0.6061
same,PRISM AUC,"BHY_UPPER_AERODIGESTIVE_TRACT, KRAS WT",0.5449
same,Area under the curve (AUC),BICR6_UPPER_AERODIGESTIVE_TRACT,0.48
same,PRISM AUC,"BICR6_UPPER_AERODIGESTIVE_TRACT, KRAS WT",0.3797
same,Area under the curve (AUC),BICR16_UPPER_AERODIGESTIVE_TRACT,0.6188
same,PRISM AUC,"BICR16_UPPER_AERODIGESTIVE_TRACT, KRAS WT",0.3298
same,Area under the curve (AUC),BICR18_UPPER_AERODIGESTIVE_TRACT,0.7129
same,Area under the curve (AUC),BICR22_UPPER_AERODIGESTIVE_TRACT,0.7071
same,PRISM AUC,"BICR22_UPPER_AERODIGESTIVE_TRACT, KRAS WT",0.5898
same,Area under the curve (AUC),BICR31_UPPER_AERODIGESTIVE_TRACT,0.6329
same,PRISM AUC,"BICR31_UPPER_AERODIGESTIVE_TRACT, KRAS WT",0.4708
same,Area under the curve (AUC),BICR56_UPPER_AERODIGESTIVE_TRACT,0.4371
same,PRISM AUC,"BICR56_UPPER_AERODIGESTIVE_TRACT, KRAS WT",0.3236
same,Area under the curve (AUC),BICR78_UPPER_AERODIGESTIVE_TRACT,0.4728
same,Area under the curve (AUC),BL2_HAEMATOPOIETIC_AND_LYMPHOID_TISSUE,0.5494
same,Area under the curve (AUC),BLUE1_HAEMATOPOIETIC_AND_LYMPHOID_TISSUE,0.9088
same,Area under the curve (AUC),BOKU_CERVIX,0.6867
same,Area under the curve (AUC),BONNA12_HAEMATOPOIETIC_AND_LYMPHOID_TISSUE,0.5933
same,Area under the curve (AUC),BT12_SOFT_TISSUE,0.5415
same,Area under the curve (AUC),BT16_SOFT_TISSUE,0.6423
same,Area under the curve (AUC),BT474_BREAST,0.8249
same,PRISM AUC,"BT474_BREAST, KRAS WT",0.7734
same,Area under the curve (AUC),BT549_BREAST,0.8194
same,PRISM AUC,"BT549_BREAST, KRAS WT",0.982
same,Area under the curve (AUC),BV173_HAEMATOPOIETIC_AND_LYMPHOID_TISSUE,0.4807
same,PRISM AUC,"BV173_HAEMATOPOIETIC_AND_LYMPHOID_TISSUE, KRAS WT",0.3865
same,Area under the curve (AUC),BXPC3_PANCREAS,0.9101
same,PRISM AUC,"BXPC3_PANCREAS, KRAS WT",0.9333
same,Area under the curve (AUC),C4I_CERVIX,0.6719
same,Area under the curve (AUC),C32_SKIN,0.8084
same,PRISM AUC,"C32_SKIN, KRAS WT",0.9007
same,Area under the curve (AUC),C33A_CERVIX,0.9001
same,Area under the curve (AUC),C75_LARGE_INTESTINE,0.9092
same,Area under the curve (AUC),C80_LARGE_INTESTINE,0.5375
same,Area under the curve (AUC),C8166_HAEMATOPOIETIC_AND_LYMPHOID_TISSUE,0.6874
same,Area under the curve (AUC),CADOES1_BONE,0.9606
same,PRISM AUC,"CADOES1_BONE, KRAS WT",0.9865
same,Area under the curve (AUC),CAKI1_KIDNEY,0.7867
same,PRISM AUC,"CAKI1_KIDNEY, KRAS WT",0.6399
same,Area under the curve (AUC),CAL12T_LUNG,0.6265
same,PRISM AUC,"CAL12T_LUNG, KRAS WT",0.5623
same,Area under the curve (AUC),CAL27_UPPER_AERODIGESTIVE_TRACT,0.5135
same,PRISM AUC,"CAL27_UPPER_AERODIGESTIVE_TRACT, KRAS WT",0.3039
same,Area under the curve (AUC),CAL29_URINARY_TRACT,0.4956
same,PRISM AUC,"CAL29_URINARY_TRACT, KRAS WT",0.3744
same,Area under the curve (AUC),CAL33_UPPER_AERODIGESTIVE_TRACT,0.5486
same,PRISM AUC,"CAL33_UPPER_AERODIGESTIVE_TRACT, KRAS WT",0.3871

# From paper PMC11111408, “Concurrent inhibition of oncogenic and wild-type RAS-GTP for cancer therapy” (Nature, 2024)
